For the assay, the target named is human dopamine D5 receptor wild type (human) (UniProt P21918). Briefly: co-IP; renal cortex homogenates (500 μg protein/mL) of hD5R^WT-TG and hD5R^F173L-TG mice; anti-D5R antibody (3 μg/mL) 1 hour, protein-G agarose at 4°C for 12 hours; immunoblot with anti-Gαq or anti-Gαs antibody; IgG as negative control.

Sequences of proteins named here, by UniProt entry; tags and fusion partners are left off.
UniProt P21918: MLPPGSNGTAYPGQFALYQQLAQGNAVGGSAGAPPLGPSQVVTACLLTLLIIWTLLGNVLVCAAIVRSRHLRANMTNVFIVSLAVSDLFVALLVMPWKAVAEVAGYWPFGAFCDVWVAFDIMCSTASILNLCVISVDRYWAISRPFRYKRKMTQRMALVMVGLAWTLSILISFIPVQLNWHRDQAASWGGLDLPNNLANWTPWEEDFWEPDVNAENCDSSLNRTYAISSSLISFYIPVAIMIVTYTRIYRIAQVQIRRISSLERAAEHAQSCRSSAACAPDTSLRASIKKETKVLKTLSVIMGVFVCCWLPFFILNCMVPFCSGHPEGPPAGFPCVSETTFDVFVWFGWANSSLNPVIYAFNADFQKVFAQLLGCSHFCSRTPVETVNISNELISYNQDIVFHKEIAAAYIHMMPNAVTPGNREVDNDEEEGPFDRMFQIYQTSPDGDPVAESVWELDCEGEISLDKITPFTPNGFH
UniProt P21279: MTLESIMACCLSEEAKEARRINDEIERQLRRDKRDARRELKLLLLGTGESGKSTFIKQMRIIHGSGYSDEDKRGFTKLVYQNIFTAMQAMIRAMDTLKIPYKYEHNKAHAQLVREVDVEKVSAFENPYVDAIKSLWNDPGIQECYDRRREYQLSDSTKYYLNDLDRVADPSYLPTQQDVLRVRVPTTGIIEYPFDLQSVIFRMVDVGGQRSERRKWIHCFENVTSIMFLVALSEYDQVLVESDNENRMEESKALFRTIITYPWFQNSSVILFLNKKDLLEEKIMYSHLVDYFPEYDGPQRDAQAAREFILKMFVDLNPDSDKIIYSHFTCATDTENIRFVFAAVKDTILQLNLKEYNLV
UniProt P63094: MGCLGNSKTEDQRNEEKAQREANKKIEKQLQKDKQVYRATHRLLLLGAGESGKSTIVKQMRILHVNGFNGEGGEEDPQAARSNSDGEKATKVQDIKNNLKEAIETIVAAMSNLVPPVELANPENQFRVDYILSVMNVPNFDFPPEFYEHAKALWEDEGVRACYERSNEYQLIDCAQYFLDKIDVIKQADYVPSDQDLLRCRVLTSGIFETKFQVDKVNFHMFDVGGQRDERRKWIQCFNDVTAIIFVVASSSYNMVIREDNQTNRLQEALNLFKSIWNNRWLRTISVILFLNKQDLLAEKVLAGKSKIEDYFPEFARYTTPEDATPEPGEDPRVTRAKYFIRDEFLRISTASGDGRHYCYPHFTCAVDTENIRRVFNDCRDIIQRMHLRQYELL

Results are given in words; binding and its absence hold for the method and conditions named. Binding seen in cells or lysates may run through a third protein. Some entries that bind do so weakly or less than the wild type.

This note sets out measurements from article PMC6507211.

For the sequence “G protein alpha q subunit (from UniProt P21279 1-359)”, the binding entry is on record as “binds”.

As to “G protein alpha s subunit (from UniProt P63094 1-394)”, the binding result is given as “binds”.
